The target of assay [1] is K8/K18 (keratin 8 / keratin 18), endogenous in mouse colon epithelium (mouse (endogenous in colon epithelium)) (UniProt P11679+P05784). Description: co-IP; mouse proximal and distal colon epithelium lysate (25 mM Hepes pH 8.0, 100 mM NaCl, 5 mM EDTA, 0.5% Triton X-100), precleared; K8/K18 antibodies and protein-G/Sepharose; immunoblot for NICD; no-antibody control.
In assay [2] the target is full-length Notch1 receptor (FLN) overexpressed in MEFvim-/- cells (UniProt Q01705). Briefly: co-IP; MEFvim-/- cells transfected with Notch1 constructs with and without K8/K18, lysed 24 h after transfection; goat anti-full length Notch1 c-20 antibody (all Notch1 forms) and protein-G/Sepharose; immunoblot for K8 and K18; no-antibody control.
Assay [3] concerns the target K8/K18 endogenous in HEK 293 cells (human (endogenous in HEK 293)) (UniProt P05787+P05783). Briefly: co-IP; HEK FLN 293 cell lysate; K18 antibody and protein-G/Sepharose; immunoblot for FLN. On the technique in general: Immunoblotting shows a protein as a band on a membrane.

Protein sequences, listed by entry. Tags and fused reporters are not part of them. Lines headed by an entry give the natural chain unless they say otherwise; changes in a name come on top.
UniProt P11679: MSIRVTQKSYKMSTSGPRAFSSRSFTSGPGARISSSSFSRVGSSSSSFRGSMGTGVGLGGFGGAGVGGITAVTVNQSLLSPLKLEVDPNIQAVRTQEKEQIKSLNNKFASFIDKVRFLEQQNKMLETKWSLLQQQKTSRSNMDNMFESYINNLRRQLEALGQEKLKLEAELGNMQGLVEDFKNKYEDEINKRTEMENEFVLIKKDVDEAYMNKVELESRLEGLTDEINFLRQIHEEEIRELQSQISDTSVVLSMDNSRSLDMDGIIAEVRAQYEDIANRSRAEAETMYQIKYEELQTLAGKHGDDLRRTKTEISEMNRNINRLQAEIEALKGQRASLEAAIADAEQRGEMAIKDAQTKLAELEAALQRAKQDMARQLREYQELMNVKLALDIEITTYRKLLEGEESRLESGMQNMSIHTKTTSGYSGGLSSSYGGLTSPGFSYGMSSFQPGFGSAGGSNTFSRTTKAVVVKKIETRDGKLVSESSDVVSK
UniProt P05784: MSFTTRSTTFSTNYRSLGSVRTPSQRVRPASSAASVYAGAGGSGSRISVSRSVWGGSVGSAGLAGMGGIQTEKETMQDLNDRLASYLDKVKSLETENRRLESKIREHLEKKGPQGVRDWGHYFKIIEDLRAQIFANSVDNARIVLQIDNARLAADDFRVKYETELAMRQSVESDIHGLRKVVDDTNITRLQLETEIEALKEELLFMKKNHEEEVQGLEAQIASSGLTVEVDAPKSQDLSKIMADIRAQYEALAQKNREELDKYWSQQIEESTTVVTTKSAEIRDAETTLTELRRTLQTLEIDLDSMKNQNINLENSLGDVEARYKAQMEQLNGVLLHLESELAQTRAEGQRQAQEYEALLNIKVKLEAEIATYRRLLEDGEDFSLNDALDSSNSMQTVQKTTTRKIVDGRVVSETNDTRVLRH
UniProt Q01705: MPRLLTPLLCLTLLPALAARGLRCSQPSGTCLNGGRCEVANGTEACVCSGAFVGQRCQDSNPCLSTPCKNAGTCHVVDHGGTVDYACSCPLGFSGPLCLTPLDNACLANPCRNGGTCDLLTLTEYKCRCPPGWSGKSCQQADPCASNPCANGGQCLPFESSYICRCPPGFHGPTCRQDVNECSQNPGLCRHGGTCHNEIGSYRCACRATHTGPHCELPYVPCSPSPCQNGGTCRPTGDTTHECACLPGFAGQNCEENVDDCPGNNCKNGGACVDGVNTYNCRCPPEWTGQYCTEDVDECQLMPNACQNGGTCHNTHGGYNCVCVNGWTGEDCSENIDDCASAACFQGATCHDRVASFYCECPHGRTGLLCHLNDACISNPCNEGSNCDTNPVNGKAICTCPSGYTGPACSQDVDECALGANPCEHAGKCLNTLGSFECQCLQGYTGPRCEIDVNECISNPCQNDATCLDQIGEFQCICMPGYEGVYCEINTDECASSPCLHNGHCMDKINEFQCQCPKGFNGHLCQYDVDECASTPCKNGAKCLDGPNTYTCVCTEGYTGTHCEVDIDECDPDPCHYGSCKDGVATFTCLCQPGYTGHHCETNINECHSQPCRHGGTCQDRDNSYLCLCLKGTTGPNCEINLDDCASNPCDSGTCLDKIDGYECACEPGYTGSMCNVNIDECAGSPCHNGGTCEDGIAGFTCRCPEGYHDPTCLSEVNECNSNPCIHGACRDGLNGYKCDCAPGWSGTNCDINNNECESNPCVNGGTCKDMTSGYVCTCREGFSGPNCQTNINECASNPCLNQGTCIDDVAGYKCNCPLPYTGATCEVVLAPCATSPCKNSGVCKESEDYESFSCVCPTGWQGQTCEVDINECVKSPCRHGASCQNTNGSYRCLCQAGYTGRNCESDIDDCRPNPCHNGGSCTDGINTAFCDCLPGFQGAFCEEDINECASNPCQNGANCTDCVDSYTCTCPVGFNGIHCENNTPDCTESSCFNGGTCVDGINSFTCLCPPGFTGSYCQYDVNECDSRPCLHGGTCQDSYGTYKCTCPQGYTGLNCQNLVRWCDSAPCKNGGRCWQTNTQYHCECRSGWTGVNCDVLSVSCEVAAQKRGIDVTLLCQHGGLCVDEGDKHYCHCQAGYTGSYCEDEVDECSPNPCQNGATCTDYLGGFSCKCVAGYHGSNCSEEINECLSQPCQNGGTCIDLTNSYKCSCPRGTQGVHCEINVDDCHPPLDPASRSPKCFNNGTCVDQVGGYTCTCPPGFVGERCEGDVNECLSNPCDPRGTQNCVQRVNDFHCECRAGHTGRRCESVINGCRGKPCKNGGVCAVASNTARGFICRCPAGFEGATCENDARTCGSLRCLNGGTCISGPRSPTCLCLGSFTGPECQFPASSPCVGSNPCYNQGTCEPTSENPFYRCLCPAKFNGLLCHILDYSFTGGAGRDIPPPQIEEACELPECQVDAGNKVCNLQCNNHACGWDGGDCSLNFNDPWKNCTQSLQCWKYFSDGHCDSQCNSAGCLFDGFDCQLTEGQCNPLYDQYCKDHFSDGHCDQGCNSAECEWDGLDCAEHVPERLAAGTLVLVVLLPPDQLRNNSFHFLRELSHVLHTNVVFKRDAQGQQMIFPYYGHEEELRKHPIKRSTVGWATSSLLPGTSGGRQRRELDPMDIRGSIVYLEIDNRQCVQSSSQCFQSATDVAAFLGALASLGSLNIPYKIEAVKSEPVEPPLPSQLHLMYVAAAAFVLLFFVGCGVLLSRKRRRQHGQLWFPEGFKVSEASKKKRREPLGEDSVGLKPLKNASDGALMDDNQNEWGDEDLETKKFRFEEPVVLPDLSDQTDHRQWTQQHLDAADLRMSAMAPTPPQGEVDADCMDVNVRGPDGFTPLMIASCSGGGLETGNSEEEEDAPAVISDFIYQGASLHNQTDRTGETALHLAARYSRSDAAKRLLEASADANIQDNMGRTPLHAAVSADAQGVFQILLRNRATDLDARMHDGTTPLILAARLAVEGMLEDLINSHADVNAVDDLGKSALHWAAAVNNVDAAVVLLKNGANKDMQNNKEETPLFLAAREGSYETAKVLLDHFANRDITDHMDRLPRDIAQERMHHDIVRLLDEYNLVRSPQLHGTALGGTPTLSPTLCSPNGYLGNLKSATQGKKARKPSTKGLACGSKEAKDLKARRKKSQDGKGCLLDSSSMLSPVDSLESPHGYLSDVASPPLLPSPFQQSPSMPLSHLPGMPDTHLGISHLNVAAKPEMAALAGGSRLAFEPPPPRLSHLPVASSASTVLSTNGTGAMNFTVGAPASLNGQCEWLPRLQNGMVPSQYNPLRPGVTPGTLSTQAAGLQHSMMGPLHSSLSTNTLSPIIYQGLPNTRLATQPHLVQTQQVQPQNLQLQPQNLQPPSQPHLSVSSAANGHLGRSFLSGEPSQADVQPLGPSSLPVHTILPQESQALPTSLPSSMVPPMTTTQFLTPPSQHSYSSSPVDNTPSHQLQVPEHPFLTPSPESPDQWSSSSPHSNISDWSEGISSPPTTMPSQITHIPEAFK
UniProt P05787: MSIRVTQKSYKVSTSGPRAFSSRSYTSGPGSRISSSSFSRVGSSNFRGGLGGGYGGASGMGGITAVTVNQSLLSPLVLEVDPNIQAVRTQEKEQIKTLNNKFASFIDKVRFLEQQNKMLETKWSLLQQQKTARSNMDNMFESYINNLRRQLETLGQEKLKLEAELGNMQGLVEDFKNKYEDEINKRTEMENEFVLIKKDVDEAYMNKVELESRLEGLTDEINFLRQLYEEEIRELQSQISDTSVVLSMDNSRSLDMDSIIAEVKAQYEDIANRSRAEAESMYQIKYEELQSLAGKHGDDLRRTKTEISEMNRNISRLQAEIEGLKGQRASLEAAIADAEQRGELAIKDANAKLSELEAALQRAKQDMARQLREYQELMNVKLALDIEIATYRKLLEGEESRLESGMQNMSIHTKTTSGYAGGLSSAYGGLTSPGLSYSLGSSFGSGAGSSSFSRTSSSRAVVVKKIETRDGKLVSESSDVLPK
UniProt P05783: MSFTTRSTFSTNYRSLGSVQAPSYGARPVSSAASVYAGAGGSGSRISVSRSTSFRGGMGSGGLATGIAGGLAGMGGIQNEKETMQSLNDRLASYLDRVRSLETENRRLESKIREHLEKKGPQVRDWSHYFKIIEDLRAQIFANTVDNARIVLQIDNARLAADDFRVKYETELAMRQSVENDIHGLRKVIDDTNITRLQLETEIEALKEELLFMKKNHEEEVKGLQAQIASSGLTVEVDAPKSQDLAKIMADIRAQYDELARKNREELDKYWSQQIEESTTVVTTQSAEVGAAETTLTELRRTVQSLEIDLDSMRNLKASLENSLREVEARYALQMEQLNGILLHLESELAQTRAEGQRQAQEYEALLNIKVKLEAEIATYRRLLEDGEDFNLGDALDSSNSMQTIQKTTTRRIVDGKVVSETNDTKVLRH

Results are given in words; binding and its absence hold for the method and conditions named. In cells and extracts the contact can be indirect. Some results given as binding are weak or reduced against the parent protein; the word gives no strength.

“Notch1 intracellular domain (NICD), endogenous in mouse colon epithelium (from UniProt Q01705 1744-2531) (domain or fragment)”: in assay [1], the binding result is listed as “binds”.
Regarding “human K8/K18 overexpressed in MEFvim-/- cells (from UniProt P05787 1-483; P05783 1-430) (complex)”, the binding result in assay [2] is reported as “binds”.
Regarding “full-length Notch1 receptor (FLN) overexpressed in HEK FLN 293 cells (from UniProt Q01705 19-2531)”, in assay [3], the binding result is recorded as “binds”.

The values are drawn from publication PMC5442467.
